# Screening data, single-dose tests

Amino acid sequences for entries named in this document (tags omitted).
UniProt P9WFT3, whole entry: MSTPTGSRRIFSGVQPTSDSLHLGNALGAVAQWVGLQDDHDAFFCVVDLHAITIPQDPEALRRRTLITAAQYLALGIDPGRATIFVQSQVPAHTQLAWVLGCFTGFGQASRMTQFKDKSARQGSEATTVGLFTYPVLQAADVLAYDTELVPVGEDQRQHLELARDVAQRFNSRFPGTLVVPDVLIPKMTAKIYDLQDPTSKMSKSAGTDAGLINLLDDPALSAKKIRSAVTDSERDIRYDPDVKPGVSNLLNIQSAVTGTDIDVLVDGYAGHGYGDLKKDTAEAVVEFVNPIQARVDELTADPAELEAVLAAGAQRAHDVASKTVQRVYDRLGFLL

Measurements from “University of Dundee, Small-Polar-MMV Screening Library” (2021), ChEMBL document CHEMBL3988442.

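Tryptophan-tRNA ligase, Mycobacterium tuberculosis (UniProt P9WFT3). Enzyme assay of tryptophanyl-tRNA synthetase; the read-out is not stated. Tested at 10 µM. Direction is not recorded; retested compounds ran higher, which suggests that high means inhibition. Of about 65,000 compounds tested this way, about 64 (0.098%) reached 50% or more in at least one test.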

Results are given as percent effect.
How 0% and 100% were set is not recorded. Most values in the screen are low, and negative values occur.
This is an unselected part of the compounds tested.

| structure | Percent Effect |
|---|---|
| `Cc1ccccc1CSc1nc(N)cc(N2CCCC(C(N)=O)C2)n1` (stereo not shown) | 11.1 |
| `NCC1Cc2cc(Oc3cc(F)c(CN4CCCC4)c(F)c3)ccc2O1` (stereo not shown) | 0.8683 |
| `COCCC(=O)NC(C)(C(N)=O)c1cccc(Cl)c1` (stereo not shown) | 0.576 |
| `CCSc1ncc(CN2CCN(c3ncc(C)c(N)n3)CC2)cn1` | 3.457 |
| `Cc1ccc2c(c1)SCC(=O)N2Cc1noc(C2CCCO2)n1` (stereo not shown) | -8.927 |
| `CNC(=O)C1CN(c2ncccn2)CCN1Cc1ccccc1` (stereo not shown) | -6.413 |
| `O=C(c1ccc2sccc2c1)N1CCC(C(=O)O)(n2ccnc2)CC1` | -2.252 |
| `Cc1cnc(NS(=O)(=O)c2ccccc2)s1` | -3.641 |
| `Cc1cc(C)nc(CN2CCOC(c3ccc(Cl)cc3)C2)n1` (stereo not shown) | -0.8215 |
| `CNC(=O)c1ccc(CNc2ccncc2Cl)cc1` | 0.8997 |
| `CCC[C@H]1CN(C(=O)c2cc(-c3cccs3)n(C)n2)C[C@@H]1N` | 0.432 |
| `CCOC(=O)C1(CCOC)CCCN(Cc2nccn2CC)C1` (stereo not shown) | -3.965 |
| `CC(C)Nc1nc(O)cc(C(C)n2ncc3ccccc3c2=O)n1` (stereo not shown) | -2.344 |
| `CC[C@H]1CN2CC[C@H]1C[C@@H]2CNC(=O)Nc1ccccc1` | -1.581 |
| `O=C(NCCc1ccncc1)C1CCN(Cc2ccco2)CC1` | 0.3552 |
| `COc1ccccc1OC1CCN(Cc2cnc(N(C)C)nc2)CC1` | 2.256 |
| `CSc1ccccc1C(=O)NCCC(O)c1ccco1` (stereo not shown) | 15.73 |
| `CCOc1ccc(Cl)cc1CNCCCn1ccnc1` | -1.206 |
| `COc1ccc(OC)c(C(O)CN2CCN(C3CCCC3)CC2)c1` (stereo not shown) | 1.687 |
| `Cc1nc(C(=O)N2CCN(c3ncccn3)[C@@H]3CS(=O)(=O)C[C@@H]32)cs1` | -5.899 |
| `CC(C)(C)c1nc(CC(=O)NC2CCN(C3CC3)C2)cs1` (stereo not shown) | -0.3303 |
| `O=C(O)CC(CC(=O)NCCc1ccsc1)c1cccs1` (stereo not shown) | 3.461 |
| `CN1CCCC(Cc2cc(N(C)C)ncn2)C1` (stereo not shown) | -0.07047 |
| `O=C(C1CCCCN1Cc1nccn1CC(F)(F)F)N1CCCC1` (stereo not shown) | 3.043 |
| `O=C(N[C@H]1CN2CCC1CC2)c1cc(Cn2cnc3ccccc32)[nH]n1` | 1.563 |
| `Cn1c(NCc2ccc(C(N)=O)cc2)nc2cc(Cl)ccc21` | 1.214 |
| `c1cnc(Nc2cc(CCC3CCNCC3)ccn2)cn1` | 2.185 |
| `O=C(NCCc1cc(N2CCOCC2)nc(NC2CC2)n1)C1CC1` | 1.371 |
| `O=C(C1CCCCC1)N1CCC2(CCCN2CC2CC2)CC1` | 0.9924 |
| `Cc1cccn2c(=O)cc(CN3CCCC3Cn3cccn3)nc12` (stereo not shown) | -1.671 |
| `CCc1cc(C(=O)NCC2CCN(Cc3cccc(C)n3)C2)on1` (stereo not shown) | 1.343 |
| `Cn1cc(C(=O)NCCc2ccc(OC3CCCC3)cc2)ccc1=O` | -0.3068 |
| `O=C(Cc1csc(-c2ccccn2)n1)NCCCN1CCCCCC1=O` | 5.013 |
| `CCn1c(CN(C)C)nnc1C1CCN(Cc2ccc(C)s2)CC1` | 2.246 |
| `CCN(C)S(=O)(=O)N1CCCC1CC(=O)c1cccs1` (stereo not shown) | -5.09 |
| `CCCn1ncc(C(=O)NC(C)c2c(C)nn(CC)c2C)c1C` (stereo not shown) | -1.198 |
| `Cc1cccc(NC(=O)[C@@H]2CCCN2CC(=O)N2CCCCCC2)n1` | 2.487 |
| `CC(C)N1CCN(C(=O)c2ccc(Cn3ccccc3=O)o2)CC1` | -4.064 |
| `O=C1N(c2cccc(Cl)c2)Cc2nc(=O)n(Cc3cccc(F)c3)n21` | -3.216 |
| `CC(NC(=O)NC1CCN(Cc2ccncc2)CC1)c1ccccc1F` (stereo not shown) | -0.7389 |
| `O=C1N(Cc2cccc(F)c2F)CCCC1(O)CNCc1ccccc1` (stereo not shown) | 1.211 |
| `CCCc1nc(CN(CC)C(=O)c2ccc3c(c2)nnn3C)no1` | -1.286 |
| `CNC(=O)[C@H]1CO[C@H]2CCN(Cc3ccc4ccccc4n3)C[C@H]2C1` | -1.133 |
| `CC(C(=O)NC(C)(C)C)S(=O)(=O)Cc1noc(C(C)(C)C)n1` (stereo not shown) | 1.63 |
| `CCO[C@H]1CC[C@H]2[C@H]1OCCN2CCOCc1ccccc1` | -3.516 |
| `Cc1cc(C)n(CC2CN(CCOc3ccccc3C#N)CCO2)n1` (stereo not shown) | -4.773 |
| `c1ccc2ncc(CC3CNCCOC3)cc2c1` (stereo not shown) | -8.683 |
| `CSC1(CNC(=O)CCc2ccc(Cl)s2)CCOCC1` | -3.609 |
| `Cc1nc2cc(OCc3nc(C(=O)NC(C)(CO)CO)co3)ccc2s1` | -5 |
| `Cc1nn(C)c(C)c1NC(=O)c1cccc(CN2C[C@H]3CC[C@@H](C2)N3)c1` | -1.4 |
| `Cc1ncsc1CN1C[C@@H]2CCCO[C@@H]2[C@H](N(C)C(C)C)C1` | -4.158 |

5 of the entries, repeated:

With O=C(c1ccc2sccc2c1)N1CCC(C(=O)O)(n2ccnc2)CC1 the screen gave -2.252%.
With CCn1c(CN(C)C)nnc1C1CCN(Cc2ccc(C)s2)CC1 the screen gave 2.246%.
With CCc1cc(C(=O)NCC2CCN(Cc3cccc(C)n3)C2)on1 (stereo not shown) the screen gave 1.343%.
With c1ccc2ncc(CC3CNCCOC3)cc2c1 (stereo not shown) the screen gave -8.683%.
With Cn1c(NCc2ccc(C(N)=O)cc2)nc2cc(Cl)ccc21 the screen gave 1.214%.